Reference: the supplement of paper PMC10849652
The list shows a part of the results.

Amino acid sequences for entries named in this document (tags omitted). A change or cut given only in a name is not applied to a line headed by its entry.
UniProt Q9BZD2: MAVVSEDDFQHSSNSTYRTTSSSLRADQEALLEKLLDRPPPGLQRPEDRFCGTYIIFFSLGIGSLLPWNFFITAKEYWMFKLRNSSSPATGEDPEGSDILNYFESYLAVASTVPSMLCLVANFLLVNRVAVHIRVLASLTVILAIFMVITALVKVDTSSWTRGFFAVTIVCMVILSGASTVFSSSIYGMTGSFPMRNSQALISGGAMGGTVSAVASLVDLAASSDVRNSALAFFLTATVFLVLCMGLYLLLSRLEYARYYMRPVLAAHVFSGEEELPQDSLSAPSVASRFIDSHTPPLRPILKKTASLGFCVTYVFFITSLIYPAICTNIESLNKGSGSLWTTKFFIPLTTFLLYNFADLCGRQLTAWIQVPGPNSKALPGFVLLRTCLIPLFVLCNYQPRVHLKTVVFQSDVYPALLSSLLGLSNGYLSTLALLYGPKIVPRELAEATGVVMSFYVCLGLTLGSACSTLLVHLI
UniProt Q96GZ6: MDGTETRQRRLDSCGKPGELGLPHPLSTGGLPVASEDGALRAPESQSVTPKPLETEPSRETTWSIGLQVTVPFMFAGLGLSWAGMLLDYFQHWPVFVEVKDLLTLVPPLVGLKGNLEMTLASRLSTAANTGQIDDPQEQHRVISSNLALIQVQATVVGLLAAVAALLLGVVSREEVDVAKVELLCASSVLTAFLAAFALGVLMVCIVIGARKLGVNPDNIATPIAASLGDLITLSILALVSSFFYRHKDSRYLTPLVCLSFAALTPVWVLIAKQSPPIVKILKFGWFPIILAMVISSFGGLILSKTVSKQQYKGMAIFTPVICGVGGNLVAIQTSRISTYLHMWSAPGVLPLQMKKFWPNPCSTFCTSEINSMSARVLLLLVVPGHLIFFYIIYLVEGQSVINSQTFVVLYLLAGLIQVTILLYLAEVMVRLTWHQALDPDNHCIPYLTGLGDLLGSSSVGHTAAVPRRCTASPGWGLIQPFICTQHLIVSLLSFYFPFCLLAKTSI
UniProt Q9BV35: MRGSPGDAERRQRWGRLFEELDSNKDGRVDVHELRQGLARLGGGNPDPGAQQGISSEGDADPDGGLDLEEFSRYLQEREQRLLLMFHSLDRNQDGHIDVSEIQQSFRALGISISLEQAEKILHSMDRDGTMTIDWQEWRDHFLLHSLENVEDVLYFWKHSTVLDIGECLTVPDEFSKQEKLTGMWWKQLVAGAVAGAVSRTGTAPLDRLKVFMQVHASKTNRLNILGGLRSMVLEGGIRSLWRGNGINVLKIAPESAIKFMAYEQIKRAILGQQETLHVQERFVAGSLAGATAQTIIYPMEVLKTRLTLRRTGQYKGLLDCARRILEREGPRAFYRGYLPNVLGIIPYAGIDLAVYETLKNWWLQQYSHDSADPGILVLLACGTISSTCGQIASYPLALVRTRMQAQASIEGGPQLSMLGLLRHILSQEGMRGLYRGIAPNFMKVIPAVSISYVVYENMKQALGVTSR
UniProt Q9BZJ4: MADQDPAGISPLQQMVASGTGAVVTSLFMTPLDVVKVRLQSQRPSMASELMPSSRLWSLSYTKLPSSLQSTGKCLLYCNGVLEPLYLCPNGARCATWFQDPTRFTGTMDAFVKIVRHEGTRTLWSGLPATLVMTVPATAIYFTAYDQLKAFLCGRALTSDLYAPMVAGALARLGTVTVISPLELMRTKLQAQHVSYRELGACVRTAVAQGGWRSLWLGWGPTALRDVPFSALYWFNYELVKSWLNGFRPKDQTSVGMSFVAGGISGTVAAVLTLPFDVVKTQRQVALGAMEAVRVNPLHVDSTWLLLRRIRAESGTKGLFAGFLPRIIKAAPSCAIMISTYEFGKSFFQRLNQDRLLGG
UniProt Q96A46: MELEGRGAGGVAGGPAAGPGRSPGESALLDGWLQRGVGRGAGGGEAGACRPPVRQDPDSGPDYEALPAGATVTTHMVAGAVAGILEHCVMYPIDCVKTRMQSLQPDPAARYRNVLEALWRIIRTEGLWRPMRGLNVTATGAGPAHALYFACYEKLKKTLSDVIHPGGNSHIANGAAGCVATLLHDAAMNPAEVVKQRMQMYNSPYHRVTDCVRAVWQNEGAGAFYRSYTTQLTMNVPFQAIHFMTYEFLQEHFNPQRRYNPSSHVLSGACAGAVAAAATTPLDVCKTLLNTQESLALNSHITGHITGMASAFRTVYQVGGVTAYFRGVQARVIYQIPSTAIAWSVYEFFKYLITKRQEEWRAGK
UniProt Q8N755: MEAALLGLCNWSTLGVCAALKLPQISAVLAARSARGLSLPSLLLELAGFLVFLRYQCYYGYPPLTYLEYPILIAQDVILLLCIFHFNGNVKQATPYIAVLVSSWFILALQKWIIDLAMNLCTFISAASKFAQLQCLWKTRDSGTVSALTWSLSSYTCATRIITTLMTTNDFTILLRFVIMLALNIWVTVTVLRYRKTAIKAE
UniProt Q8N2U9: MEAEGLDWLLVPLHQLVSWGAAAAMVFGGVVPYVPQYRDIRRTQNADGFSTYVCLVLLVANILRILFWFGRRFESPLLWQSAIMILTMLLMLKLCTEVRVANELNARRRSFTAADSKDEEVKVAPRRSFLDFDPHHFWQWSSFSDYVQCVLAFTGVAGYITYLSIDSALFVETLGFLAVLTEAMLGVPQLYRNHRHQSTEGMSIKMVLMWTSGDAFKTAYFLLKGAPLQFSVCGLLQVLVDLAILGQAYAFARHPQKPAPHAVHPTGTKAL
UniProt Q96BD0: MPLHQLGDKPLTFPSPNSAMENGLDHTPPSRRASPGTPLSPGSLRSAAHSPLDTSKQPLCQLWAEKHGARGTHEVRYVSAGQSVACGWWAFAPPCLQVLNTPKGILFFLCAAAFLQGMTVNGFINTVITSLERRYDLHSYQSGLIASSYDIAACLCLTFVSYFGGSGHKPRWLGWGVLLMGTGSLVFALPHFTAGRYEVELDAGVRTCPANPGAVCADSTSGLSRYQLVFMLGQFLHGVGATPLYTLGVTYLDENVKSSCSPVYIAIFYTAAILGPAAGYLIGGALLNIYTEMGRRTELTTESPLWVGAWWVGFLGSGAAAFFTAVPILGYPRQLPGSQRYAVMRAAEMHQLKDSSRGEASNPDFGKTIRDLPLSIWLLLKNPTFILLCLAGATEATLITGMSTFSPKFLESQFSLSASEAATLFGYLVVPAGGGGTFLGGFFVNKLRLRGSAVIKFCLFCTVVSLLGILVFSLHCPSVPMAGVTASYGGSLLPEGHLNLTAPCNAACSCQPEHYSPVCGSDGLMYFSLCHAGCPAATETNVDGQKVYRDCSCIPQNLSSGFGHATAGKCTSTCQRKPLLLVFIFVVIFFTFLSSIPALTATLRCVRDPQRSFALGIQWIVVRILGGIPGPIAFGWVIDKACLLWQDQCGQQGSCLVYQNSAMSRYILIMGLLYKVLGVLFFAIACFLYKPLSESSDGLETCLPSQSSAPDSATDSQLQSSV
UniProt Q96T83: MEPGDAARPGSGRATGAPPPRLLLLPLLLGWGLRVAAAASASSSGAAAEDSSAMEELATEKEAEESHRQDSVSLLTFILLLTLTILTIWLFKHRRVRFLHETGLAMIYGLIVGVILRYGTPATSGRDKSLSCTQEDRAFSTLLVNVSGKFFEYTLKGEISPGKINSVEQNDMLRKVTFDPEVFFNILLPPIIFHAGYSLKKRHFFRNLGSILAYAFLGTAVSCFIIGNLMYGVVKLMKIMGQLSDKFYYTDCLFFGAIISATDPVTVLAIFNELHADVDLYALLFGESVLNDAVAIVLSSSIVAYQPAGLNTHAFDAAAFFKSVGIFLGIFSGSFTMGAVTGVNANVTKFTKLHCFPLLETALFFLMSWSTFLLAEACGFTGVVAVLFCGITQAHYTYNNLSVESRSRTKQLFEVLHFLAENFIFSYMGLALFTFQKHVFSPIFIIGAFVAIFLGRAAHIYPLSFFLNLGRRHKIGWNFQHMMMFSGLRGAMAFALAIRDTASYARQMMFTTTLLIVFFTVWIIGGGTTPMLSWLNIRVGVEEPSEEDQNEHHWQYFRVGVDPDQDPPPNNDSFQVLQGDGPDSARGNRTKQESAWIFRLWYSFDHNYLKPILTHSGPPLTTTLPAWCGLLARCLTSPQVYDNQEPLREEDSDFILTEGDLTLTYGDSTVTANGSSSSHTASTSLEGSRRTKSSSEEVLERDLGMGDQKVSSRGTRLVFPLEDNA
UniProt Q0VAQ4: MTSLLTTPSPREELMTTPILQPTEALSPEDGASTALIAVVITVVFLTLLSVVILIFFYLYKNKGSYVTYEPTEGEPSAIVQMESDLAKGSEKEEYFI
UniProt Q8WWI5: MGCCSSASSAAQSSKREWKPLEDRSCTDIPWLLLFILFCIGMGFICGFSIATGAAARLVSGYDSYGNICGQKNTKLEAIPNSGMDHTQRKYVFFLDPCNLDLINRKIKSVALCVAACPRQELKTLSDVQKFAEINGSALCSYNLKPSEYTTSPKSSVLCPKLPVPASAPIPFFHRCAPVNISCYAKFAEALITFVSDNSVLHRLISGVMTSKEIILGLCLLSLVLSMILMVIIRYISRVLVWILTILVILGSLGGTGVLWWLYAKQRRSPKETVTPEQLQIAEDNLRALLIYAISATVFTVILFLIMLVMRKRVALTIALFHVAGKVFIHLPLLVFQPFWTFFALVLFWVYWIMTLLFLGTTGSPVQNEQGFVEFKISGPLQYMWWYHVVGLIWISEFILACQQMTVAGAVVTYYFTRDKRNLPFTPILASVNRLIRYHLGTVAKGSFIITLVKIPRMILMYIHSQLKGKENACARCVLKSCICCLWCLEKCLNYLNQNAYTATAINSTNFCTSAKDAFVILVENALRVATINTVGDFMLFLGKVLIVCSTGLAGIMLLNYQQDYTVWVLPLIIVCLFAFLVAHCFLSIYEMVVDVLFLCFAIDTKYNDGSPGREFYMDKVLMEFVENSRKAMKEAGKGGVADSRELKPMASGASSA
UniProt Q9BRV3: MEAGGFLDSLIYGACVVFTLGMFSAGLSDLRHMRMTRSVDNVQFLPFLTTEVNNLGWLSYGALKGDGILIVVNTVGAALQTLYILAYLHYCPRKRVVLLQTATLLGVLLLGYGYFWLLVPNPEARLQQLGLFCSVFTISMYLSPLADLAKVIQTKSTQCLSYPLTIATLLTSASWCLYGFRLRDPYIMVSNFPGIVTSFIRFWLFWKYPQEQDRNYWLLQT
UniProt Q8NBI5: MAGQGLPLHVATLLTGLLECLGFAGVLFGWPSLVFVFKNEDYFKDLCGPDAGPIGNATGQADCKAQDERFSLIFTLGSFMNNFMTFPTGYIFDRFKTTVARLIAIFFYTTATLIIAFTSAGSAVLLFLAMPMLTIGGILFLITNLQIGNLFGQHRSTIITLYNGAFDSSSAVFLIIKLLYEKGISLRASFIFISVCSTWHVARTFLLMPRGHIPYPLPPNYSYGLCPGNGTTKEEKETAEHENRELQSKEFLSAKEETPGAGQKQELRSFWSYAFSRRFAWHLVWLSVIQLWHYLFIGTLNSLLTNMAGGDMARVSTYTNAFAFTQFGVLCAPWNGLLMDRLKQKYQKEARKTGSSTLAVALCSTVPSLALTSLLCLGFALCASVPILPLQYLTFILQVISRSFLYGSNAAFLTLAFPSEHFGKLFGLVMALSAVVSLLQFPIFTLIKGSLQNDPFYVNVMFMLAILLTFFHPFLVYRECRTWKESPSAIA
UniProt P0C7P3: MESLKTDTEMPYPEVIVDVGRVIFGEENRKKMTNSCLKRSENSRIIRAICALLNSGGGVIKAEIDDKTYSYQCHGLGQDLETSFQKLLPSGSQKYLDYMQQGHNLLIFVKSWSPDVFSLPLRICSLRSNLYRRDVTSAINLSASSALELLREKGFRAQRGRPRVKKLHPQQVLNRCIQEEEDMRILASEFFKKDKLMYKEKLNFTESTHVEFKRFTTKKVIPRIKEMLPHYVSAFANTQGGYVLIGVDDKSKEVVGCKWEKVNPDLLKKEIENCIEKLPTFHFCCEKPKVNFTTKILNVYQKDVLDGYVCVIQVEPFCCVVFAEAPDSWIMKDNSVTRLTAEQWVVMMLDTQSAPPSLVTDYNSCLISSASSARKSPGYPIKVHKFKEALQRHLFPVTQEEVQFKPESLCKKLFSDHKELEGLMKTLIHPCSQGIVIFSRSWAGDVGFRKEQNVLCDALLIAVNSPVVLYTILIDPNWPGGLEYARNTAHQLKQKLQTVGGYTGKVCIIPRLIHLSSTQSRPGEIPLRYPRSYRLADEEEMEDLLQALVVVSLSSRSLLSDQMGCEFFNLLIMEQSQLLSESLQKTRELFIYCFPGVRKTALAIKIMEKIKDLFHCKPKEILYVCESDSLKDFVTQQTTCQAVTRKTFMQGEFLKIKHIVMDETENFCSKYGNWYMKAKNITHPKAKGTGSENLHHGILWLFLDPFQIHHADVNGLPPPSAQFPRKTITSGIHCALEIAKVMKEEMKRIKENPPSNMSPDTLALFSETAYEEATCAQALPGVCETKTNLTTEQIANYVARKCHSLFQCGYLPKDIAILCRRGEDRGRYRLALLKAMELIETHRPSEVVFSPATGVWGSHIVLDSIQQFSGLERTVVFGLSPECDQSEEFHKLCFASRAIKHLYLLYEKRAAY

Columns and labels:
Test in all cases: log2 fold change, soluble protein after heating vs DMSO (PISA); higher = thermal stabilisation; K562 lysate, 10 uM; active = over 0.2 and 3.5 SD of the protein, either way, in both replicates (recomputed)
[1] = compound: C1=CC2=NC=CN=C2C=C1/C=C/3\C(=O)NC(=O)S3
Summary of the method: (§1)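 Dounce homogenisation of K562 pellets in PBS pH 7.4 with 1 mM MgCl2 produced a crude extract, used at 1 mg/mL protein. Exposure to 10 μM compound lasted 30 min, and aliquots were then heated for 3 min across 48°C-58°C, pooled and brought to 0.5% NP-40 at 4°C. The supernatant after 21,000xg for 90 min was quantified by TMTpro 16plex LC-MS/MS with channel sums equalised. Duplicate values are given as log-two fold change in thermal stability relative to solvent controls.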

[2] = compound: C#Cc1cccc(Nc2ncnc3cc(OCCOC)c(OCCOC)cc23)c1 [erlotinib]
Summary of the method: as §1

[3] = compound: C1=CC(=CC=C1C2=NC3=C(N2)C=C(C=C3)C(=O)N)OC4=CC=C(C=C4)Cl
Summary of the method: as §1

[4] = compound: C1=CC=C(C=C1)C2=NC(=C(N2)C3=CC=NC=C3)C4=CC(=C(C=C4)Cl)O
Summary of the method: as §1

[5] = compound: C1COCCN1CCN2C3=CC=CC=C3N=C2NC(=O)C4=CC(=CC=C4)[N+](=O)[O-] [IRAK-1-4 Inhibitor I]
Summary of the method: as §1

[6] = compound: C/C(=N\NC(=O)C1=CC(=CC=C1)S(=O)(=O)N2CCOCC2)/C3=C(C=CC(=C3)Cl)O
Summary of the method: as §1

[7] = compound: C1=CC2=C(C=CC(=C2)/C=C\3/C(=O)NC(=NCC4=CC=CS4)S3)N=C1
Summary of the method: as §1

[8] = compound: C1=CC=C2C(=C1)C3=NNC4=CC=CC(=C43)C2=O
Summary of the method: as §1

[9] = compound: C1CCN(C1)C(=O)NC2=CC=CC(=C2)NC3=NC=C(C(=N3)NCCC4=CN=CN4)Br
Summary of the method: as §1

[10] = compound: C1CN(CCC1(CC2=CC=C(C=C2)Cl)N)C3=NC=NC4=C3C=CN4
Summary of the method: as §1

Measured: log2 fold change

SLC3A2 (UniProt F5H867)
inactive: [1] -0.019

SLC39A13 (UniProt Q96H72)
inactive: [2] 0.344 | [3] 0.063 | [4] -0.252 | [5] -0.025

SLC8B1 (UniProt Q6J4K2)
inactive: [6] 0.178 | [7] -0.051 | [8] 0.087

SLC29A3 (UniProt Q9BZD2)
inactive: [2] 0.007 | [3] 0.034 | [4] 0.014 | [5] 0.099

SLC30A7 (UniProt Q8NEW0)
inactive: [6] 0.093 | [7] -0.077 | [1] -0.093 | [4] -0.087 | [8] 0.01 | [9] 0.015 | [10] 0.021 | [5] 0.147

SLC41A3 isoform 9 (UniProt Q96GZ6)
inactive: [6] -0.056 | [7] 0.011 | [1] 0.292 | [4] -0.046 | [8] -0.234 | [9] -0.1 | [10] -0.017 | [5] -0.452

SLC3A2 (UniProt F5GZS6)
inactive: [2] -0.234 | [3] 0.045 | [1] -0.063 | [4] -0.155 | [9] -0.014 | [10] 0.011 | [5] 0.007

SLC41A1 (UniProt Q8IVJ1)
inactive: [2] 0.176 | [3] -0.042 | [4] 0.018 | [9] 0.024 | [10] -0.014 | [5] -0.008

SLC25A23 isoform 3 (UniProt Q9BV35)
inactive: [2] 0.021 | [3] 0.003 | [4] -0.03 | [5] 0.011

SLC66A1 (UniProt Q6ZP29)
inactive: [2] 0.06 | [3] 0.11 | [1] -0.079 | [4] 0.066 | [5] 0.017

SLC25A39 (UniProt Q9BZJ4)
inactive: [2] 0.185 | [3] -0.105

SLC35C2 isoform 3 (UniProt Q9NQQ7)
inactive: [2] 0.019 | [3] 0.014 | [1] -0.013 | [4] 0.024 | [9] -0.082 | [10] 0.147 | [5] 0.03

SLC25A28 (UniProt Q96A46)
inactive: [6] -0.116 | [7] 0.139 | [8] -0.232 | [9] -0.129 | [10] 0.278

SLC35E2B (UniProt P0CK96)
inactive: [6] 0.006 | [7] -0.112 | [8] -0.175 | [9] 0.043 | [10] 0.007

SLC66A3 (UniProt Q8N755)
inactive: [6] 0.302 | [7] -0.369 | [8] 0.123

SLC66A2 (UniProt Q8N2U9)
inactive: [2] -0.004 | [3] 0.076 | [1] 0.14 | [4] -0.063 | [9] -0.045 | [10] 0.033 | [5] 0.019

SLC39A1 (UniProt Q9NY26)
inactive: [2] 0.117 | [3] 0.069 | [1] -0.122 | [4] -0.224 | [5] 0.133

SLCO4A1 (UniProt Q96BD0)
inactive: [1] 0.08

SLC23A2 (UniProt Q9UGH3)
inactive: [2] -0.112 | [3] 0.214 | [4] 0.054 | [9] -0.086 | [10] 0.106 | [5] -0.018

SLC9A7 (UniProt Q96T83)
inactive: [1] -0.568

SMAGP (UniProt Q0VAQ4)
inactive: [2] -0.024 | [3] -0.014 | [4] -0.005 | [9] -0.112 | [10] 0.063 | [5] -0.089

SLC9B2 (UniProt Q86UD5)
inactive: [4] 0.101 | [5] -0.084

SMAD3 (UniProt P84022)
inactive: [4] 0.034 | [5] -0.143

SLC25A35 (UniProt Q3KQZ1)
inactive: [9] -0.008 | [10] 0.174

Copied from the results shown (two entries):
SLC9A7 (UniProt Q96T83)
inactive: [1] -0.568

SMAGP (UniProt Q0VAQ4)
inactive: [2] -0.024 | [3] -0.014 | [4] -0.005 | [9] -0.112 | [10] 0.063 | [5] -0.089

Following part:

SLC2A13 (UniProt Q96QE2)
inactive: [2] 0.051 | [3] -0.047 | [9] -0.053 | [10] -0.05

SLC44A1 (UniProt Q8WWI5)
inactive: [4] -0.251 | [5] -0.034

SLC26A11 (UniProt Q86WA9)
inactive: [2] 0.067 | [3] -0.028

SLC27A6 (UniProt Q9Y2P4)
inactive: [2] 0.045 | [3] -0.346

SLC36A4 (UniProt Q6YBV0)
inactive: [2] 0.055 | [3] -0.005 | [1] -0.039 | [4] 0.036 | [9] -0.297 | [10] 0.072 | [5] -0.021

SLC9A8 isoform 2 (UniProt Q9Y2E8)
inactive: [2] -0.16 | [3] -0.038 | [1] 0.057 | [4] -0.052 | [5] 0.038

SLC50A1 (UniProt Q9BRV3)
inactive: [2] -0.004 | [3] 0.175 | [4] -0.152 | [5] -0.009

SLX4 (UniProt Q8IY92)
inactive: [2] 0.061 | [3] -0.107

SLC43A3 (UniProt Q8NBI5)
inactive: [1] 0 | [4] -0.168 | [5] 0.022

SLC46A1 (UniProt Q96NT5)
inactive: [2] -0.057 | [3] 0.227

SLFN14 (UniProt P0C7P3)
inactive: [6] -0.057 | [7] -0.079 | [1] -0.01 | [8] 0.182 | [9] -0.083 | [10] -0.091
